Results reported in PubChem BioAssay AID1347131 (National Center for Advancing Translational Sciences (NCATS), 2019).
The whole screen tested about 410,000 compounds, of which about 2,000 (0.49%) were called active. The shares of active, inactive and inconclusive entries below differ from those in the screen. Calls come from the whole dose curve; tested in HEK293 reporter line. Potencies beside an inconclusive call are fits to weak or partial responses and may not hold up.

Assay: qHTS Assay for Foot and Mouth Disease Virus Antivirals: Primary Screen against the MLPCN compound library; note: nearly all actives have a fitted effect of over 55% in size
Details: FMDV antiviral cell-based qHTS; activity, negative = inhibition: at 57.9 µM (top of the series)
Potency is the fitted concentration of half-maximal effect.

| SMILES | Potency | activity, negative = inhibition |
| --- | --- | --- |
| Cn1c(O)c(C=Nc2ccccc2-c2ccccc2)c(=O)n(C)c1=O | inconclusive: 7.08 µM [inhibitor, partial curve, poor fit] | – |
| CCOC(=O)c1cc(-c2ccccc2)n(CCC(=O)N2CCN(c3ccccc3OC)CC2)c1C | – | inactive: -30.1% |
| COc1ccc(N2CCOCC2)c(NC(=O)c2cccs2)c1 | inconclusive: 6.31 µM [inhibitor, partial curve] | – |
| CC(=O)C1=CCC(c2ccccc2)N(S(=O)(=O)c2ccc(Cl)cc2)C1 (configuration not stated) | inconclusive: 28.2 µM [inhibitor, partial curve, poor fit] | – |
| COc1ccc(C(=O)Nc2ccc(Nc3ccccc3)cc2)cc1[N+](=O)[O-] | inconclusive: 35.5 µM [inhibitor, partial curve, poor fit] | – |
| N#CCn1c(CCl)nc2ccccc2c1=O | inconclusive: 7.94 µM [inhibitor, full curve, poor fit] | – |
| CCOC(=O)N1CCN(Cc2ccc3c(c2)CN(C(=O)c2cc(-c4ccccc4)on2)CCO3)CC1 | inconclusive: 28.2 µM [inhibitor, partial curve, poor fit] | – |
| O=Cc1ccc(Cl)c(Cl)c1 | inconclusive: 11.2 µM [inhibitor, partial curve] | – |
| COc1ccc(CCn2c(C)cc(C(=O)CSc3nnc(N)s3)c2C)cc1 | inconclusive: 28.2 µM [inhibitor, partial curve, poor fit] | – |
| Cc1cc(N2CCN(c3nc(-c4ccccc4)cs3)CC2)c2ccccc2n1 | inconclusive: 28.2 µM [inhibitor, partial curve, poor fit] | – |
| CC(Cl)=CCn1c(NCCc2ccccc2)nc2c1c(=O)n(C)c(=O)n2C | inconclusive: 12.6 µM [inhibitor, partial curve, poor fit] | – |
| O=C(Nc1ccc(Cl)c(C(F)(F)F)c1)C1CCN(S(=O)(=O)c2cccc3nonc23)CC1 | inconclusive: 31.6 µM [inhibitor, partial curve, poor fit] | – |
| Cc1nc(N2CCN(c3ccccn3)CC2)c2c(C)c(C(=O)Nc3c(C)cc(Br)cc3C)sc2n1 | inconclusive: 10 µM [inhibitor, partial curve, poor fit] | – |
| Cc1cccc2c(C(=O)N3CCN(C(=O)c4ccco4)CC3)cc(-c3cccc(Br)c3)nc12 | inconclusive: 17.8 µM [inhibitor, partial curve, poor fit] | – |
| CCCCc1noc(-c2c(-c3ccccc3Cl)noc2C)n1 | inconclusive: 14.1 µM [inhibitor, partial curve, poor fit] | – |
| c1ccc(C(Cc2nc(-c3ccccn3)no2)c2ccccc2)cc1 | inconclusive: 25.1 µM [inhibitor, partial curve, poor fit] | – |
| O=C(CN(c1cccc(C(F)(F)F)c1)S(=O)(=O)c1ccc(Cl)c([N+](=O)[O-])c1)NCc1ccccc1Cl | inconclusive: 39.8 µM [inhibitor, partial curve, poor fit] | – |
| O=C(Cn1c(=O)oc2cc(S(=O)(=O)N3CCCCC3)ccc21)NCc1ccc(Cl)cc1 | inconclusive: 14.1 µM [inhibitor, partial curve, poor fit] | – |
| CCOc1ccc(Nc2cc(C)nc(-n3nc(C)cc3C)n2)cc1 | inconclusive: 20 µM [inhibitor, partial curve, poor fit] | – |

| SMILES | Potency | activity, negative = inhibition |
| --- | --- | --- |
| COc1ccc(CCNC(=O)CCCCC(=O)NCCc2ccc(OC)c(OC)c2)cc1OC | inconclusive: 8.91 µM [inhibitor, full curve] | – |
| O=C(Nc1ccc2oc(-c3ccccc3F)nc2c1)c1ccc2c(c1)OCCO2 | inconclusive: 35.5 µM [inhibitor, partial curve, poor fit] | – |
| COc1ccc(C(=O)Nc2noc3ccccc23)cc1 | inconclusive: 8.91 µM [inhibitor, partial curve, poor fit] | – |
| N#Cc1ccc(Nc2nc(-c3ccc(O)cc3O)cs2)cc1C(F)(F)F | inconclusive: 35.5 µM [inhibitor, partial curve, poor fit] | – |
| COc1ccc(-n2cc(C(=O)c3ccccc3O)cn2)cc1 | inconclusive: 20 µM [inhibitor, single point] | – |
| Cc1csc(SCC(=O)Nc2ccc(S(=O)(=O)N3CCCC3)cc2)n1 | inconclusive: 12.6 µM [inhibitor, single point] | – |
| Cc1nc2ccccc2c(=O)n1/N=C/c1cn[nH]c1-c1ccccc1 | inconclusive: 5.62 µM [inhibitor, partial curve] | – |
| Cc1cc2oc(C(=O)NC3CCS(=O)(=O)C3)cc(=O)c2cc1C (configuration not stated) | – | inactive: -51.9% |
| COc1ccc(C(=O)Nc2c(-c3cccs3)c(=O)c3ccccc3n2C)cc1 | inconclusive: 2.51 µM [inhibitor, full curve] | – |
| CCn1nc(C)cc1C(=O)NC1CCCc2c1cnn2-c1ccc(C)c(C)c1 (configuration not stated) | inconclusive: 10 µM [inhibitor, partial curve, poor fit] | – |
| CCCCCCCCCCn1ccc(=N)cc1 | inconclusive: 15.8 µM [inhibitor, partial curve, poor fit] | – |
| Cc1ccc(C(=O)Nc2onc3c2CCCC3)cc1 | inconclusive: 8.91 µM [inhibitor, partial curve, poor fit] | – |
| Cc1cccc(C)c1NC(=O)Cn1c(=O)n(Cc2ccco2)c(=O)c2ccc(C(=O)NC3CCCC3)cc21 | – | inactive: -30.3% |
| Cc1ccccc1S(=O)(=O)Nc1ncc(C(F)(F)F)cc1Cl | inconclusive: 11.2 µM [inhibitor, partial curve, poor fit] | – |
| COc1ccccc1-c1cc(C(F)(F)F)nc(S(C)(=O)=O)n1 | inconclusive: 31.6 µM [inhibitor, partial curve, poor fit] | – |
| CS(=O)(=O)c1nc(-c2ccc(Br)cc2)cc(-c2ccccc2)c1C#N | active: 25.1 µM | – |
| CCOc1ccc(NC(=O)Cn2c(=O)oc3cc(S(=O)(=O)N4CCCCCC4)ccc32)cc1 | inconclusive: 4.47 µM [inhibitor, full curve] | – |
| O=C(N/N=C/c1cc(Br)ccc1OC(=O)c1ccc(Br)cc1)c1ccncc1 | inconclusive: 17.8 µM [inhibitor, partial curve] | – |

Ordered by SMILES length (low to high): 3 of the compounds above.

| SMILES | Potency | activity, negative = inhibition |
| --- | --- | --- |
| CCCCCCCCCCn1ccc(=N)cc1 | inconclusive: 15.8 µM [inhibitor, partial curve, poor fit] | – |
| O=C(Nc1ccc(Cl)c(C(F)(F)F)c1)C1CCN(S(=O)(=O)c2cccc3nonc23)CC1 | inconclusive: 31.6 µM [inhibitor, partial curve, poor fit] | – |
| Cc1nc(N2CCN(c3ccccn3)CC2)c2c(C)c(C(=O)Nc3c(C)cc(Br)cc3C)sc2n1 | inconclusive: 10 µM [inhibitor, partial curve, poor fit] | – |
